Results are given in words; binding and its absence hold for the method and conditions named. Binding seen in cells or lysates may run through a third protein. These calls come from enrichment with a bait or labelling near it, and not all partners need be listed.
Target: T1, Carnitine Palmitoyltransferase 1A (CPT1A) (human (endogenous in THP-1)) (UniProt P50416)
T1 sequence: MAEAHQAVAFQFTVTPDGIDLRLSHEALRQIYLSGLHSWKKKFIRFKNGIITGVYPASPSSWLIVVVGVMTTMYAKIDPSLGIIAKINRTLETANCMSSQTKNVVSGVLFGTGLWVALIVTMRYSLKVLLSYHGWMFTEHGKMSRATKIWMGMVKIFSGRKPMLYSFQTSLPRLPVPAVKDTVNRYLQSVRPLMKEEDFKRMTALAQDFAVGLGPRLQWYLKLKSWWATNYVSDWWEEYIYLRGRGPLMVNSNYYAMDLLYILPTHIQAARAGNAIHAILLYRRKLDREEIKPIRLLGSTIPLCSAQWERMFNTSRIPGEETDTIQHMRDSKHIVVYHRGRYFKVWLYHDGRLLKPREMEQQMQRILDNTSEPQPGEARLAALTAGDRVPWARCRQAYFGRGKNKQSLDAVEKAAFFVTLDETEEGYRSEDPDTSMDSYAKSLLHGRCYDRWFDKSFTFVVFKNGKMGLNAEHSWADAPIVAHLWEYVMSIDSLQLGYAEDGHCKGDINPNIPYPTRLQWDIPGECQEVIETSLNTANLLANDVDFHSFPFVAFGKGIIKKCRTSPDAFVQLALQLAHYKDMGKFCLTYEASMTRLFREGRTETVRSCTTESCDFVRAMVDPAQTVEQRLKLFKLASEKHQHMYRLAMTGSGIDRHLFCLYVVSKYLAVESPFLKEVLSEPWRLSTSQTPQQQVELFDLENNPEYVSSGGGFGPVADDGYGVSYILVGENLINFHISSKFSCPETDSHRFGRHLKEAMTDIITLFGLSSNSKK
Assay: affinity purification with mass spectrometry; LC-MS/MS of the CPT1A immunoprecipitate; cells not given

Chains of the proteins cited; added tags and fusions are not shown.
UniProt Q14258: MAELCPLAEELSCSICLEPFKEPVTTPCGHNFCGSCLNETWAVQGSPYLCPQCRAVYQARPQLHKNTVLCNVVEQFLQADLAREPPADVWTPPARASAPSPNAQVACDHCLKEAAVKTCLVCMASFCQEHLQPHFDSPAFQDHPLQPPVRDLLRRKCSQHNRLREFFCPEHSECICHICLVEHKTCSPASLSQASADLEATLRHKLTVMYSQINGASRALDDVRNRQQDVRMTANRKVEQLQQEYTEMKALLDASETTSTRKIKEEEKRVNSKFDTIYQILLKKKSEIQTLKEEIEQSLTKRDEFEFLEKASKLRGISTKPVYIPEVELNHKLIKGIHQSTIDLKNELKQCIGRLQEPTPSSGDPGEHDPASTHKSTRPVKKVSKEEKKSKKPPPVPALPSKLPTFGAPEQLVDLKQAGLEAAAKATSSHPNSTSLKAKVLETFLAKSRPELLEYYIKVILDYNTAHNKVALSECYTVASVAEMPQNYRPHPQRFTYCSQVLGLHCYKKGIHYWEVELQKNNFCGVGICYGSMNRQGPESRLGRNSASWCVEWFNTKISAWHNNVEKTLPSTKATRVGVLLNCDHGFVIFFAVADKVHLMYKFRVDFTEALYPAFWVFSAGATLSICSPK

binding: binds
Substance: TRIM25 (tripartite motif-containing 25) (from UniProt Q14258 1-630)

Source: PMC12594597
